Values of other authors in patent US5420335A, “Parenteral nutrients based on watersoluble glycerol bisacetoacetates” (priority 1993, dated 1995).
For at least one compound, name, drawing or mass did not settle the structure.

Conditions: in words; vs glucose; cited from earlier work

| SMILES | insulin response |
| --- | --- |
| CC(=O)CC(=O)O [acetoacetate] | lacking a significant insulin response |
| CC(O)CC(=O)O (centres unmarked) [3-hydroxybutyrate] | lacking a significant insulin response |
